The campaign covered roughly 340,000 compounds. About 170 (0.05%) were called active. The inconclusive results got no clear call from the source; some entries with a clear call stand among them for comparison. The call rests on the fitted dose curve; in most records, active means well fitted inhibition curve with a large enough effect in the signal ratio, with a control signal flat (not every such curve was filed as active); inconclusive means small, poorly fitted or top-dose-only effect, or effect the other way, or a change in a side signal; inactive means flat fitted curve, though single readings scatter; the % refers to the signal ratio. Where the call is inconclusive, the potency comes from a doubtful curve fit.
Assay: qHTS Assay to Find Inhibitors of Chronic Active B-Cell Receptor Signaling;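 on activity change, negative = inhibition: plate controls were basal doxycycline-induced cells for no effect and cells given 10 µM MG132 for full effect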
Details: ABC-DLBCL IkBa-CBG/CBR reporter, luminescence ratio (green luciferase fused to IkBa over red control in TMD8 lymphoma cells), 4 h; activity change, negative = inhibition: at 46.1 µM (top of the series) unless noted
How it was run: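 Cell line TMD8 (human ABC DLBCL), stably expressing tet-inducible CBG68-IkBa fusion and CBR; IMDM/0.5% FBS; cpd up to 46 uM; dox induction, 4 h, 37C/5% CO2; dual luminescence; green/red ratio; MG132 control.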
Potency means the concentration at half of the fitted maximal effect.

SMILES | Potency | activity change, negative = inhibition
COc1ccc(/C=C/c2nc3ccccc3c(=O)o2)cc1 | inconclusive: 5.62 µM [rising, single point] | –
C[C@H](C(=O)CC(=O)OC(C)(C)C)[C@H](O)c1ccccc1 | – | inactive
Brc1cccc(CN2CCN(c3ncccn3)CC2)c1 | – | inconclusive: 0.388%
Cc1c(C)c2c(OCC(=O)NCCCO)cc3c(c2oc1=O)CCC(C)(C)O3 | – | inconclusive: -6.19%
C=CCNC(=O)c1onc(CSc2ccccc2CC)c1C(=O)O | inconclusive: 35.5 µM [rising, single point] | –
Cn1c(SCc2nc(-c3ccc(Br)cc3)no2)nnc1-c1ccco1 | – | inconclusive: 4.01%
O=C(NC1CCS(=O)(=O)C1)c1cn(-c2ccccc2)nc1-c1ccccc1 (centres undefined) | – | inconclusive: -0.452%
CC(C)NC(=O)c1ccc(Sc2ccccc2)c([N+](=O)[O-])c1 | – | inconclusive: 5.47%
COCCCN=Cc1c(C)[nH]n(-c2ccc(Br)c(C)c2)c1=O | – | inactive
CCCCCOc1ccc(CSC(=N)N)cc1[N+](=O)[O-] | inconclusive: 22.4 µM [falling, single point] | –
O=C1NC(=O)/C(=C\c2ccccc2OCc2ccc([N+](=O)[O-])cc2)N1 | – | inconclusive: 3.56%
Cc1cc(C(=O)N/N=C/c2ccc(-c3ccccc3Cl)o2)n[nH]1 | inconclusive: 5.8 µM [falling, single point] | –
O=C(NCCC1CCCC1)c1cccs1 | – | inactive
CCOC(=O)C1=C(C)NC(C)=C(C(=O)OCC)C1C(=O)OCC(=O)N(CC)C1CCS(=O)(=O)C1 (centres undefined) | – | inconclusive: -14.4%
Cc1cccc(NC(=O)c2cccnc2)c1C | – | inactive
CC12CCC(C(=O)N3CCCCCC3)(OC1=O)C2(C)C (centres undefined) | – | inconclusive: 0.401%
CCCCOC(=O)CCc1c(C)n[nH]c1C | inconclusive: 14.1 µM [falling, single point] | –
O=C(NCc1cccs1)c1cccn2c(=O)c3sccc3nc12 | – | inconclusive: 4.71%
Cc1sc2nc(COC(=O)c3c(F)cccc3F)[nH]c(=O)c2c1C | – | inconclusive: 9.81%
CS(=O)(=O)Nc1ccc(-c2cc(/C=C3\SC(N)=NC3=O)c[nH]c2=O)cc1 | – | inactive
C/C(=N\Nc1ccc([N+](=O)[O-])cc1)c1ccc(C#N)cc1 | inconclusive: 1.12 µM [rising, full curve, poor fit] | –
CC1=Nc2cc(C(=O)NCC3CCCO3)ccc2Sc2ccc(C)cc21 (centres undefined) | inconclusive: 6.31 µM [falling, partial curve] | –
Cc1ccc2c(c1)COc1c3ccc(C(=O)NC(C)C)cc3nn1-2 | – | inactive
Cc1ccc(C(=O)N[C@H](C(=O)OCC(=O)NC2CCS(=O)(=O)C2)C(C)C)cc1 (some centres undefined) | – | inconclusive: -2.85%
Cc1cccc(-n2cnc3sc(C)c(C)c3c2=O)c1 | – | inconclusive: -0.841%
CN(C)CCCNC(=O)c1cc2c3ccccc3n(C)c2s1 | – | inconclusive: -6.91%
C/C(=N\NC(=O)c1csc(C)c1C)c1ccc(Cl)s1 | – | inconclusive: -24.4%

SMILES | Potency | activity change, negative = inhibition
O=C(COc1ccccc1)N1CCN(c2ccc([N+](=O)[O-])c(N3CCCCC3)c2)CC1 | – | inconclusive: -8.45%
CN(CC(=O)NCC1COc2ccccc2O1)S(=O)(=O)c1ccc(Cl)cc1 (centres undefined) | – | inconclusive: -0.301%
CC1CN(S(=O)(=O)c2cccc(C(=O)OCc3cc(=O)oc4cc(O)ccc34)c2)CC(C)O1 (centres undefined) | – | inconclusive: -2.13%
O=C(NC1CCCC1)C(c1ccncc1)N(C(=O)c1ccco1)c1ccccc1 (centres undefined) | inconclusive: 35.5 µM [falling, partial curve, poor fit] | –
COc1ccccc1/C=C/C=N/Nc1cccc(C(=O)O)c1 | inconclusive: 5.62 µM [rising, single point] | –
CCn1ncc(-c2csc(N)n2)c1C | – | inconclusive: -8.65%
COc1ccccc1C(=O)NCC(=O)N1CCN(S(=O)(=O)c2ccccc2C(F)(F)F)CC1 | – | inconclusive: -0.686%
CCc1cccc(CC)c1N1C(=O)c2cc(N3CCOCC3)c([N+](=O)[O-])cc2C1=O | – | inconclusive: 5.59%
COc1ccccc1NS(=O)(=O)c1ccc(-c2cc(C)no2)s1 | inconclusive: 15.8 µM [falling, partial curve] | –
CC(=O)N1CCN(CC(=O)Nc2ccccc2C(=O)Nc2ccccc2)CC1 | – | inconclusive: -0.0893%
Cc1cc(C)c(S(=O)(=O)N2CCC3(CC2)OCCN3S(=O)(=O)c2cccs2)c(C)c1 | – | inconclusive: -6.08%
COC(=O)c1cccc(N2C(=O)C(Cl)=C(N3CCOCC3)C2=O)c1 | – | inconclusive: 4.46%
COc1ccc(NC(=O)CSc2nnc(CNC(=O)c3cccs3)o2)c(OC)c1 | – | inconclusive: 1.36%
O=C(CN1CCCC1)Nc1ccc(NC(=O)Nc2ccccc2Cl)cc1 | – | inactive
Clc1ccc(/C=N/Nc2nnc(Cl)c3ccccc23)cc1 | inconclusive: 0.58 µM [falling, full curve, poor fit] | –
COc1ccc(NS(=O)(=O)c2ccc(N3CCCC3=O)cc2)cn1 | – | inconclusive: -5.4%
COc1ccc(Cn2nc(C(=O)O)c3ccccc3c2=O)cc1F | – | inconclusive: 0.963%
CN(C)CCCOc1ccc(Cl)cc1Br | – | inactive
O=C(/C=C/c1c[nH]c2ccccc12)c1ccccc1 | inconclusive: 5.17 µM [falling, single point] | –
COc1cc2ccccc2cc1C(=O)Nc1nccs1 | – | inconclusive: -2.18%
Cc1ccc(C)c(NC(=O)CN(C)S(=O)(=O)c2ccc(F)cc2)c1 | – | inconclusive: 11.4%
CCCCOc1ccc(OCCNC(=O)c2ccco2)cc1 | – | inactive
O=C(CC1CCCC1)NCCS(=O)(=O)N1CCN(c2ccccc2F)CC1 | – | inactive
Cc1ccccc1-n1c(SC/C(O)=C(\C#N)c2nc3ccccc3[nH]2)nnc1-c1ccncc1 | – | inconclusive: 8.22%
Clc1ccc(-c2nnc3sc(Cc4cccs4)nn23)cc1 | – | inconclusive: -6.94%
CCOC(=O)/C=C(\C)Sc1cc(O)c2ccccc2c1O | – | inactive
CCCCCCCN1C(N(C)C)=NC[C@@H]1Cc1ccccc1 | inconclusive: 18.4 µM [falling, partial curve, poor fit] | –

Part of the list above, tab-delimited:
SMILES	Potency	activity change, negative = inhibition
Cc1cccc(NC(=O)c2cccnc2)c1C	–	inactive
CC12CCC(C(=O)N3CCCCCC3)(OC1=O)C2(C)C (centres undefined)	–	inconclusive: 0.401%
CCCCOC(=O)CCc1c(C)n[nH]c1C	inconclusive: 14.1 µM [falling, single point]	–
O=C(NCc1cccs1)c1cccn2c(=O)c3sccc3nc12	–	inconclusive: 4.71%
